Assay results from publication PMC8765783, “Identification of the potential active site of the septal peptidoglycan polymerase FtsW” (PLoS Genetics, 2022).
These are yes or no findings as the source states them, for the method shown. Binding seen in cells or lysates may run through a third protein. Some results given as binding are weak or reduced against the parent protein; the word gives no strength. Sequences can lack the tags named with a protein.

Tests used:
Test in all cases: pull-down; His-tagged protein co-expressed with the untagged partner in E. coli; membranes solubilised in DDM; His-tagged protein held on a HisTrap column (50 mM Tris-HCl pH 7.5, 300 mM NaCl, 10% glycerol, 1 mM DDM, 50 mM imidazole), eluted with an imidazole gradient; SDS-PAGE with Coomassie, Bocillin FL fluorescence or anti-HA blot
[1] = biological target: T1, His-FtsW W138A (E. coli) (UniProt P0ABG4)
T1 sequence: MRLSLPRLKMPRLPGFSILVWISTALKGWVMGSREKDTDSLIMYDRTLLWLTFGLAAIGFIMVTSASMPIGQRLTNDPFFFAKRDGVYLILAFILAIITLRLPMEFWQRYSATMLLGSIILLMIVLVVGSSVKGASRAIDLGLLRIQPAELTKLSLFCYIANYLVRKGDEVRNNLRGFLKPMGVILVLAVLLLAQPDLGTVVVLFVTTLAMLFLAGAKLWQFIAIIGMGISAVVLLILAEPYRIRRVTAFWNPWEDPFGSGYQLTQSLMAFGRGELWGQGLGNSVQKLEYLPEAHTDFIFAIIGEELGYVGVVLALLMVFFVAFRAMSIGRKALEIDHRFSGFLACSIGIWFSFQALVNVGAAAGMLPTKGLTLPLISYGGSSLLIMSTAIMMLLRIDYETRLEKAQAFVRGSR

[2] = biological target: T2, His-FtsW G381D (E. coli) (UniProt P0ABG4)
T2 sequence: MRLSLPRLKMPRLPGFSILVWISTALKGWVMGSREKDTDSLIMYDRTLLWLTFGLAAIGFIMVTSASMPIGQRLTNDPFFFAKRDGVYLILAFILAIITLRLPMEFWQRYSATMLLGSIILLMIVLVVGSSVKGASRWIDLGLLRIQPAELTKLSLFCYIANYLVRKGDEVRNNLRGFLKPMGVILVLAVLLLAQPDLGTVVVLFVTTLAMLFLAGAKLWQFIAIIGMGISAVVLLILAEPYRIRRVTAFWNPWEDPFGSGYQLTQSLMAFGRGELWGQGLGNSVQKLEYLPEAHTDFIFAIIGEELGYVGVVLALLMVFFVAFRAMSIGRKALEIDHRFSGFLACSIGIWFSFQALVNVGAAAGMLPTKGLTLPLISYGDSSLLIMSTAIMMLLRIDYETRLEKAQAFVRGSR

[3] = biological target: T3, His-FtsW R243L (E. coli) (UniProt P0ABG4)
T3 sequence: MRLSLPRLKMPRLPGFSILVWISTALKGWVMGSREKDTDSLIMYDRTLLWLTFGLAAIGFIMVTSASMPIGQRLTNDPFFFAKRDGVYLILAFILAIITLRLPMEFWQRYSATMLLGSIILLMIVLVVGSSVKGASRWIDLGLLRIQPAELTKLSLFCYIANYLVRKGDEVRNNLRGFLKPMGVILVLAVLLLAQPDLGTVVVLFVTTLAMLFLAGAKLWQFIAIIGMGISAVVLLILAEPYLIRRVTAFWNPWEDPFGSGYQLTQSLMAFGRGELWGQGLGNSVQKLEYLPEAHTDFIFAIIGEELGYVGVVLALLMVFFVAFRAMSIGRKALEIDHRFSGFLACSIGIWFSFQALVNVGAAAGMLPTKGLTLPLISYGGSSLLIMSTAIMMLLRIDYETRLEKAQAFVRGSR

[4] = biological target: T4, His-FtsW P196T (E. coli) (UniProt P0ABG4)
T4 sequence: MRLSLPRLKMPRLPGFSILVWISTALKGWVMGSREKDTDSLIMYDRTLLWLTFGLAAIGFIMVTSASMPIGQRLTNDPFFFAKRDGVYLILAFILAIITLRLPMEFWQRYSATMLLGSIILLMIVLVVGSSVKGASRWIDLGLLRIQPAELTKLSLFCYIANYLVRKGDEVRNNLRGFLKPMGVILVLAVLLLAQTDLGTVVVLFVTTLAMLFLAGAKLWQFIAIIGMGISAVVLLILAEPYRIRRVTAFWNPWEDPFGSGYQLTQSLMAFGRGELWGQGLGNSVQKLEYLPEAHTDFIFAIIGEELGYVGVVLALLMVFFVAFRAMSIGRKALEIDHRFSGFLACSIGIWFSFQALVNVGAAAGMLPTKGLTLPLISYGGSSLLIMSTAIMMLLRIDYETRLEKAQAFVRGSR

[5] = biological target: T5, His-FtsW Y242H (E. coli) (UniProt P0ABG4)
T5 sequence: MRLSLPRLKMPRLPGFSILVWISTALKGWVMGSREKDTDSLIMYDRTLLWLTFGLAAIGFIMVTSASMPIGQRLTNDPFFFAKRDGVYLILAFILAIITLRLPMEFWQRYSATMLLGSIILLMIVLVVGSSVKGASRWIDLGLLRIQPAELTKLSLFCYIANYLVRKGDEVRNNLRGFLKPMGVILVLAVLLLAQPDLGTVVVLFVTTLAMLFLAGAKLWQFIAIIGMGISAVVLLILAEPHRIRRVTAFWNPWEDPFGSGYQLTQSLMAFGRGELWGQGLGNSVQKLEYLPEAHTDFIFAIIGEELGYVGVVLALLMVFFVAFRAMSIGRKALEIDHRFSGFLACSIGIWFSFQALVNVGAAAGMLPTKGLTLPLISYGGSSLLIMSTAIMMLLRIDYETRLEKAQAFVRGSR

binding [1]: binds
binding [2]: binds
binding [3]: binds
binding [4]: binds
binding [5]: binds
B1: FtsI(PBP3), untagged (E. coli) (enzyme, UniProt P0AD68 1-577)
chain: MKAAAKTQKPKRQEEHANFISWRFALLCGCILLALAFLLGRVAWLQVISPDMLVKEGDMRSLRVQQVSTSRGMITDRSGRPLAVSVPVKAIWADPKEVHDAGGISVGDRWKALANALNIPLDQLSARINANPKGRFIYLARQVNPDMADYIKKLKLPGIHLREESRRYYPSGEVTAHLIGFTNVDSQGIEGVEKSFDKWLTGQPGERIVRKDRYGRVIEDISSTDSQAAHNLALSIDERLQALVYRELNNAVAFNKAESGSAVLVDVNTGEVLAMANSPSYNPNNLSGTPKEAMRNRTITDVFEPGSTVKPMVVMTALQRGVVRENSVLNTIPYRINGHEIKDVARYSELTLTGVLQKSSNVGVSKLALAMPSSALVDTYSRFGLGKATNLGLVGERSGLYPQKQRWSDIERATFSFGYGLMVTPLQLARVYATIGSYGIYRPLSITKVDPPVPGERVFPESIVRTVVHMMESVALPGGGGVKAAIKGYRIAIKTGTAKKVGPDGRYINKYIAYTAGVAPASQPRFALVVVINDPQAGKYYGGAVSAPVFGAIMGGVLRTMNIEPDALTTGDKNEFV
